Measurements reported in PubChem BioAssay AID504834 (National Center for Advancing Translational Sciences (NCATS), 2011).
The whole screen tested about 320,000 compounds, of which about 22,000 (6.9%) were called active. The inconclusive results got no clear call from the source; some entries with a clear call stand among them for comparison. Calls come from the whole dose curve; as a rule, active = well fitted inhibition curve with a large enough effect; inconclusive = small, poorly fitted or top-dose-only effect, or another doubt; inactive = no such curve, though single readings can be large or run the other way. Where the call is inconclusive, the potency comes from a doubtful curve fit. Where a SMILES comes first, the peptide text is derived from it. [ ]: non-standard residue; d: D form. The star is where a group is joined. Boc = CC(C)(C)OC(=O)*

Test: Primary qHTS for delayed death inhibitors of the malarial parasite plastid, 96 hour incubation
Details: P. falciparum luciferase reporter growth; series mostly up to 28.7 µM; activity change, negative = inhibition: at the top concentration
Method in brief: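 Cell-based qHTS: luciferase-tagged P. falciparum in erythrocytes (2% hematocrit, 0.05% parasitemia final) incubated with compounds for 96 hours, 37 C, 5% CO2; luciferase detection reagent then added and luminescence measured.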
% is set by controls: 0 for no effect and ±100 for the full control effect; potency is the fitted concentration of half-maximal effect.

Compound | activity change, negative = inhibition | Potency
COc1ccc([C@@]2(O)c3c(ccc(CC=C(C)C)c3O)NC(=O)[C@@H]2OC)cc1 | inactive: -24.9% | 
COc1cccc(NC(=O)C2CCN(Cc3cnn(-c4ccccc4)c3-n3cccc3)CC2)c1 |  | inconclusive: 18.5 µM [inhibitor, single point]
Cc1cc(=O)[nH]c(N/N=C/c2ccc(Br)s2)n1 |  | inconclusive: 18.5 µM [inhibitor, single point]
Cc1ccc2c(c1)CCCN2C(=O)CSc1ccccc1 | inactive: 15.7% | 
O=C(NCCCN1CCOCC1)c1cnccn1 | inactive: 48.3% | 
N#CCCN1CCN(C(=S)c2ccc(-c3ccc(Cl)c(Cl)c3)o2)CC1 | inactive: 1.91% | 
CCCCCOC(=O)C1=C(C)N(C)C(=O)NC1c1cc(Br)c(O)c(OC)c1 (configuration not stated) | inactive: 2.8% [at 5.75 µM] | 
CC1Cc2ccccc2N1C(=O)COC(=O)c1ccccc1NCCO (configuration not stated) |  | inconclusive: 18.5 µM [inhibitor, single point]
CC(=O)OC1CCC2(C)C(COc3ccc4ccc(=O)oc4c3)C(C)(O)CCC2C1(C)C (configuration not stated) |  | active: 9.28 µM
COc1ccc(C(=O)Nc2ccccc2)cc1NC(=O)c1ccc([N+](=O)[O-])cc1 |  | inconclusive: 18.5 µM [inhibitor, single point]
CCCCCOc1ccc(C(=O)CCN2CCOCC2)cc1 |  | active: 2.33 µM
NS(=O)(=O)c1ccc(CCNC/C=C/c2ccccc2)cc1 |  | inconclusive: 18.5 µM [inhibitor, single point]
O=C1OC(CN2CCOCC2)CN1N=Cc1ccc([N+](=O)[O-])o1 (configuration not stated) |  | inconclusive: 10.4 µM [inhibitor, single point]
COC(=O)[C@]12C(=O)C(C)=C(O)[C@@]1(C)C(C)=CC1[C@@]34CC[C@@H](OC(C)=O)C(C)(C)C3C(C[C@]12C)OC4=O (some centres not stated) |  | inconclusive: 18.5 µM [inhibitor, partial curve]
CCc1sc(C(=O)Nc2cccc(-n3cnnn3)c2)cc1C |  | inconclusive: 13.1 µM [inhibitor, single point]
CCc1ccc(NC(=O)CS(=O)CC(=O)NCCCc2ccccc2)cc1 (configuration not stated) |  | inconclusive: 0.131 µM [inhibitor, full curve, poor fit]
N#CC(C#N)=C1C=CC=CN1/C(=C\c1ccco1)C(=O)c1ccc(Cl)cc1 |  | inconclusive: 18.5 µM [inhibitor, single point]
COc1ccc([N+](=O)[O-])cc1-n1cnnn1 |  | active: 1.47 µM
CC1CN(C(=O)c2ccc(CNS(=O)(=O)c3cccc(C(F)(F)F)c3)cc2)CC(C)O1 (configuration not stated) |  | inconclusive: 18.5 µM [inhibitor, single point]
CCOc1ccc(CCNC(=O)COC(=O)Cc2ccc(OC)c(OC)c2)cc1OCC | inactive: 1.92% | 
CC(C)(C)OC(=O)N[C@H](Cc1ccccc1)C(=O)N1CCC[C@@H]1C(=O)O (Boc-[dF]-[dP]-OH) | inactive: 31.3% | 
CCC(C)NC(=O)c1ccc(N2CC3CC(C2)c2cccc(=O)n2C3)c(NC(=O)c2ccc(Br)o2)c1 (configuration not stated) |  | active: 9.28 µM
CCc1ccc(Nc2nnc(SCC(=O)Nc3cccnc3Cl)s2)cc1 |  | inconclusive: 18.5 µM [inhibitor, single point]
NC1=NC2CS(=O)(=O)CC2S1 (configuration not stated) | inactive: 53.3% | 

Compound | activity change, negative = inhibition | Potency
COCC(=O)NCCc1nc2ccccc2[nH]1 | inactive: 18.8% | 
CCC(CC)C(=O)c1c[nH]c(C(=O)N2CCN(c3ccccc3F)CC2)c1 |  | inconclusive: 0.657 µM [inhibitor, full curve, poor fit]
CCOc1ccccc1Nc1nc(-c2sc(NC(=O)c3ccccc3)nc2C)cs1 |  | inconclusive: 7.38 µM [inhibitor, partial curve]
O=C(Cc1cccs1)NCc1cccc(Cl)c1 | inactive: 7.88% | 
CC(C)c1ccc(NC2CCCN(C(=O)c3n[nH]c4c3CCC4)C2)cc1 (configuration not stated) |  | inconclusive: 11.7 µM [inhibitor, single point]
O=[N+]([O-])c1cccc(-c2nc3ccccc3s/c2=N/O)c1 |  | inconclusive: 13.1 µM [inhibitor, partial curve, poor fit]
CCCN1CCN(CCCNC(=O)c2cc3c(=O)[nH]c4ccccc4c3s2)CC1 | inactive: 421% | 
Cc1cccc(NC(=O)c2ccc(OCC(=O)NCc3ccccc3)cc2)c1C |  | inconclusive: 8.28 µM [inhibitor, partial curve]
OCCNc1ncnc2c1nnn2Cc1ccccc1 |  | inconclusive: 10.4 µM [inhibitor, partial curve, poor fit]
CCCCOc1ccc(C(=O)N/N=C/c2ccc(OCCN3CCCCC3)c(OC)c2)cc1 |  | active: 11.7 µM
O=C(NNC(=O)c1ccc(Cl)cc1Cl)c1cnccn1 |  | inconclusive: 11.7 µM [inhibitor, partial curve, poor fit]
Cc1ccccc1CSc1nc(C(C)(C)C)cc(=O)[nH]1 | inactive: 28.6% | 
CC1(c2ccccc2)NC(=O)N(CC(=O)Nc2ccc3c(c2)OCO3)C1=O (configuration not stated) | inactive: 0.658% | 
COc1ccc(N(CC(=O)NC2CCCC2)S(=O)(=O)c2ccc(NC(C)=O)cc2)cc1 | inactive: 0% | 
OCC1(Cc2ccccc2)CCN(Cc2cc3ccccc3o2)CC1 |  | inconclusive: 10.4 µM [inhibitor, single point]
COc1ccc(C(NC(C)=O)c2cc(Cl)c3cccnc3c2O)cc1 (configuration not stated) |  | inconclusive: 10.4 µM [inhibitor, single point]
COc1cc2c(cc1OC)C(c1ccc(-c3ccc(Cl)c(Cl)c3)o1)=NCC2 |  | inconclusive: 10.4 µM [inhibitor, partial curve, poor fit]
COc1ccccc1CNc1ccc(N2CCCCC2)cc1 |  | inconclusive: 18.5 µM [inhibitor, single point]
O=c1[nH]c(=S)[nH]c2sc3c(c12)CCCCCC3 |  | inconclusive: 20.8 µM [inhibitor, single point]
O=C(NCCc1csc(-c2cccc(F)c2)n1)c1ccco1 | inactive: -2.19% | 
O=C(CNc1ccccc1C(=O)O)c1ccccc1 | inactive: 8.46% | 
CC(C)(C)C1CCC(=NNC(=O)CC(=O)NCc2ccccc2)CC1 (configuration not stated) |  | active: 2.08 µM
CCN1C(=O)/C(=C/c2ccc(N3CCCC3)cc2)NC1=S |  | active: 8.28 µM
O=c1c2ccccc2nc(CNCc2ccco2)n1-c1ccc(F)cc1 |  | inconclusive: 18.5 µM [inhibitor, single point]

Compound | activity change, negative = inhibition | Potency
CC(NC(=O)Nc1ccc(F)cc1F)c1ccc2c(c1)OCO2 (configuration not stated) |  | inconclusive: 18.5 µM [inhibitor, single point]
CCOc1cccc(/C=C(/C#N)c2nc3ccccc3[nH]2)c1OCC(=O)O |  | inconclusive: 1.47 µM [inhibitor, full curve, poor fit]
Cc1ccc(C)c(C(=O)OCC(=O)Nc2cccc(S(=O)(=O)N3CCCCC3)c2)c1 |  | active: 10.4 µM
COc1ccc(Nc2nnc(SCC(=O)NC3CCS(=O)(=O)C3)s2)cc1 (configuration not stated) |  | inconclusive: 2.08 µM [inhibitor, partial curve]
O=S(=O)(NCCc1ccccc1F)c1cccc(S(=O)(=O)N2CCOCC2)c1 |  | active: 6.57 µM
CC(C)c1ccc(/C=N/NC(=O)c2ccccc2Cl)cc1 |  | inconclusive: 0.0828 µM [inhibitor, full curve, poor fit]
COCc1nnc(NC(=O)c2ccc(S(=O)(=O)N3CCOCC3)cc2)o1 |  | inconclusive: 0.037 µM [inhibitor, full curve, poor fit]
O=C(O)C12C[C@H]3C[C@@H](C1)CC(n1ncc(N4CCN(c5ccccc5)CC4)c(Cl)c1=O)(C3)C2 |  | inconclusive: 18.5 µM [inhibitor, single point]
O=C(N/N=C/c1cc([N+](=O)[O-])ccc1O)c1cccc(N2CCCC2=O)c1 | inactive: 32.6% | 
N#C/C(=C\c1ccc(N2CCCC2)c([N+](=O)[O-])c1)c1nc2ccccc2[nH]1 | inactive: 83.5% | 
CCCn1c(NC(=O)c2ccc([N+](=O)[O-])o2)nc2ccccc21 |  | inconclusive: 3.7 µM [inhibitor, full curve]
COC(=O)c1c(-c2cccc(OC)c2)csc1N |  | inconclusive: 18.5 µM [inhibitor, single point]
NS(=O)(=O)c1ccc(NCc2ccccc2OCc2ccc(F)cc2)cc1 | inactive: 0% | 
CCOc1cc(C(=O)Nc2cccc3ncccc23)cc(OCC)c1OCC |  | active: 14.7 µM
Cc1ccc(C(=O)NC(=S)NCc2ccccc2)cc1 |  | inconclusive: 10.4 µM [inhibitor, single point]
CC(=O)c1cccc(NC2=NCC(C)S2)c1 (configuration not stated) |  | active: 13.1 µM
CCC1(c2ccc(F)cc2)NC(=O)N(CC(=O)Nc2cc(C)on2)C1=O (configuration not stated) |  | inconclusive: 18.5 µM [inhibitor, partial curve, poor fit]
Cc1ccc(OCC(O)Cn2c3ccccc3c3ccccc32)cc1 (configuration not stated) |  | inconclusive: 1.85 µM [inhibitor, partial curve, poor fit]
Fc1ccc2nc(-c3ccccc3)nc(SCc3nnc(-c4ccccc4)o3)c2c1 |  | inconclusive: 18.5 µM [inhibitor, single point]
Cc1cc2ccccn2c1C(=O)c1ccccc1F | inactive: 34.4% | 
O=S1(=O)[C@H]2C[C@@H]3C=C[C@@]2(CN1Cc1cccc(F)c1)O3 |  | inconclusive: 18.5 µM [inhibitor, single point]
COc1cc(OC)c(NC(C)C(=O)NCc2ccccc2)cc1Cl (configuration not stated) |  | inconclusive: 13.1 µM [inhibitor, partial curve, poor fit]
CN1C(=O)C(c2nnc(Nc3cccc4ccccc34)s2)C2CC1(C)Oc1ccccc12 (configuration not stated) |  | active: 4.65 µM
COC(=O)C1(CC2CC(c3ccc(Cl)cc3)=NO2)CCN(C(=O)OC(C)(C)C)CC1 (configuration not stated) |  | inconclusive: 18.5 µM [inhibitor, single point]

Some values from above.
activity change, negative = inhibition with N#CCCN1CCN(C(=S)c2ccc(-c3ccc(Cl)c(Cl)c3)o2)CC1 reads inactive: 1.91%
activity change, negative = inhibition with O=C(N/N=C/c1cc([N+](=O)[O-])ccc1O)c1cccc(N2CCCC2=O)c1 reads inactive: 32.6%
Potency with CC(C)(C)C1CCC(=NNC(=O)CC(=O)NCc2ccccc2)CC1 (configuration not stated) reads active: 2.08 µM
Potency with O=S1(=O)[C@H]2C[C@@H]3C=C[C@@]2(CN1Cc1cccc(F)c1)O3 reads inconclusive: 18.5 µM [inhibitor, single point]
